# Measurements reported in PubChem BioAssay AID1224826 (NIAID, 2016).
# Aim: 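Knock-downs that raise or lower Tnf reporter signal after endotoxin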 (primary screen)
# Cell system: RAW264.7 G9 macrophages from mouse bearing reporters for p65 (GFP) and the Tnf promoter (mCherry)
# Knock-down reagent: siRNA pool against mouse genes, 100 nM
# Timing: 16 h of LPS stimulation, after 2 days of siRNA transfection
# Conditions: bacterial lipopolysaccharide (Salmonella minnesota R595), 10 ng/ml
# Measured: 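Nuclear mCherry signal of the Tnf promoter reporter measured by imaging after background removal, scaled to each plate median and turned into robust z-scores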
# Reading the numbers: Tnf reporter robust z-score: higher = stronger Tnf promoter reporter signal after LPS; Tnf reporter intensity: higher = stronger Tnf promoter reporter signal
# Hit rule: 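a well counts as active at a score of -1.3 or below (Tlr4 knock-down control median) or above 3 (raised signal); controls and wells holding fewer than 50 cells are excluded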
# Meaning of the calls: active = Tnf reporter clearly lowered or raised; inactive = no clear change in Tnf reporter
# In all, the deposit lists about 17,000 reagents; shown is an unselected part. About 1,110 of them (6.6%) count as active. 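Active means lowered or raised reporter signal; replicate intensities are raw and not normalised per plate.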 Reagents against one gene are numbered here. Some reagents were tested in more than one well and are listed for each.
gene knocked down,reagent no.,Tnf reporter robust z-score,fewer than 50 cells in well,"Tnf reporter intensity, replicate 1","Tnf reporter intensity, replicate 2",activity call
Nat10,1,1.5,enough cells in well,330,264,inactive
Zfp111,1,0.87,enough cells in well,167,154,inactive
Mterf3,1,0.07,enough cells in well,254,49.2,inactive
Pak6,1,-0.61,enough cells in well,151,129,inactive
Rundc3b,1,-0.11,enough cells in well,223,107,inactive
Klf8,1,0.46,enough cells in well,176,190,inactive
Hps3,1,0.95,enough cells in well,310,251,inactive
Vmn1r58,1,2.6,enough cells in well,238,155,inactive
Agtr1b,1,0.23,enough cells in well,206,363,inactive
Impdh2,1,-0.15,enough cells in well,200,162,inactive
Ngp,1,-0.05,enough cells in well,210,111,inactive
Trpa1,1,0.28,enough cells in well,208,159,inactive
1810009J06Rik,1,0.48,enough cells in well,290,80.2,inactive
Map6,1,-0.43,enough cells in well,181,98.2,inactive
Arhgef11,1,-0.09,enough cells in well,164,163,inactive
Mtfmt,1,,fewer than 50 cells per well; well left out of calls,184,73.6,inactive
Crhbp,1,0.63,enough cells in well,281,250,inactive
Palm,1,-1.5,enough cells in well,70.8,67.2,active
Adprm,1,,fewer than 50 cells per well; well left out of calls,36.4,54.8,inactive
Cftr,1,-0.84,enough cells in well,189,138,inactive
Lrrc10,1,-1.07,enough cells in well,113,100,inactive
Vill,1,-1.43,enough cells in well,63.8,59.8,active
Brpf1,1,-1.54,enough cells in well,66.1,83.1,active
Slc1a3,1,3.57,enough cells in well,212,234,active
Avpr1b,1,0.88,enough cells in well,245,213,inactive
Avpr1b,1,1.46,enough cells in well,281,511,inactive
Myo15a,1,-0.1,enough cells in well,255,198,inactive
Or4c113,1,-1.13,enough cells in well,118,91.7,inactive
Tmt1a,1,,fewer than 50 cells per well; well left out of calls,170,54.9,inactive
Med15,1,0.34,enough cells in well,149,162,inactive
Specc1l,1,,fewer than 50 cells per well; well left out of calls,88.4,73.6,inactive
Fbxo6,1,-0.1,enough cells in well,242,201,inactive
Or8g27,1,3.12,enough cells in well,275,299,active
Cited2,1,2.24,enough cells in well,288,311,inactive
Ppargc1a,1,0.55,enough cells in well,292,228,inactive
Ppargc1a,2,-1.08,enough cells in well,106,110,inactive
Gpx7,1,-0.07,enough cells in well,264,144,inactive
Foxs1,1,1.22,enough cells in well,345,347,inactive
Atrn,1,-0.94,enough cells in well,127,102,inactive
C1qtnf5,1,0.54,enough cells in well,127,201,inactive

Already shown: 2 of the entries above.
gene knocked down,reagent no.,Tnf reporter robust z-score,fewer than 50 cells in well,"Tnf reporter intensity, replicate 1","Tnf reporter intensity, replicate 2",activity call
Cftr,1,-0.84,enough cells in well,189,138,inactive
Lrrc10,1,-1.07,enough cells in well,113,100,inactive
